Reference: ChEMBL document CHEMBL6074686 (Eur J Med Chem, 2025)

Assay: Toxicity in female BALB/c nude mouse xenografted with human SK-OV-3 cells assessed as body weight loss at 10 mg/kg, sc administered via tail vein once every 2 to 3 days
Type: organism-based
Details: in vivo, time 2-3 day

With `CC(=O)O[C@H]1C(=O)[C@@]2(C)[C@H]([C@H](OC(=O)c3ccccc3)[C@]3(O)C[C@H](OC(=O)[C@H](O)[C@@H](NC(=O)c4ccccc4)c4ccccc4)C(C)=C1C3(C)C)[C@]1(OC(C)=O)CO[C@@H]1C[C@@H]2O` [PACLITAXEL] the Activity was “Toxic”.
